Patent US8076287B2, “Cyclic hexadepsipeptides, processes for their production and their use as pharmaceuticals” (priority 2006, dated 2011)
In brackets after ≈: the same amount, converted by molar mass.

Legend:
Assay in all cases: MIC broth dilution, antibacterial activity
Type in all cases: cell-based
[1] = test system: S. aureus MRS3 ATCC ™ 700699 (MRSA-hVISA); details: Staphylococcus aureus, MH medium, 35° C., 16 to 20 hours
[2] = test system: Enterococcus faecalis ATCC ™ 51299 (VRE); details: BHI+ medium
[3] = test system: S. epidermidis ATCC ™ 12228; details: Staphylococcus epidermidis, ATCC12228, MH medium, 35° C., 16 to 20 hours
[4] = test system: Enterococcus faecalis ATCC ™ 29212 (VSE); details: ATCC29212, BHI+ medium
[5] = test system: S. aureus ATCC ™ 6538P (MSSA); details: Staphylococcus aureus, MH medium, 35° C., 16 to 20 hours

## CN[C@H](CC(C)C)C(=O)N[C@H]1C(=O)N[C@@H](CC(N)=O)C(=O)N[C@H]2C(=O)N[C@H]3C(=O)N[C@H](C(=O)N[C@H](C(=O)O)c4cc(O)cc(O)c4-c4cc3ccc4O)[C@H](O)c3ccc(c(Cl)c3)Oc3cc2cc(c3O[C@@H]2O[C@H](CO)[C@@H](O)[C@H](O)[C@H]2O[C@H]2C[C@](C)(N)[C@H](O)[C@H](C)O2)Oc2ccc(cc2Cl)[C@H]1O [Vancomycin, reference compound]
[1]
  MIC: 4 µg/mL (≈ 2.76 µM)
[2]
  MIC: 32 µg/mL (≈ 22.1 µM)
[3]
  MIC: 2 µg/mL (≈ 1.38 µM)
[4]
  MIC: 4 µg/mL (≈ 2.76 µM)
[5]
  MIC: 1 µg/mL (≈ 0.69 µM)
